In publication PMC6895255:
These are yes or no findings as the source states them, for the method shown. In cells and extracts the contact can be indirect. These calls come from enrichment with a bait or labelling near it, and not all partners need be listed.

Amino acid sequences for entries named in this document (tags omitted).
UniProt O15054: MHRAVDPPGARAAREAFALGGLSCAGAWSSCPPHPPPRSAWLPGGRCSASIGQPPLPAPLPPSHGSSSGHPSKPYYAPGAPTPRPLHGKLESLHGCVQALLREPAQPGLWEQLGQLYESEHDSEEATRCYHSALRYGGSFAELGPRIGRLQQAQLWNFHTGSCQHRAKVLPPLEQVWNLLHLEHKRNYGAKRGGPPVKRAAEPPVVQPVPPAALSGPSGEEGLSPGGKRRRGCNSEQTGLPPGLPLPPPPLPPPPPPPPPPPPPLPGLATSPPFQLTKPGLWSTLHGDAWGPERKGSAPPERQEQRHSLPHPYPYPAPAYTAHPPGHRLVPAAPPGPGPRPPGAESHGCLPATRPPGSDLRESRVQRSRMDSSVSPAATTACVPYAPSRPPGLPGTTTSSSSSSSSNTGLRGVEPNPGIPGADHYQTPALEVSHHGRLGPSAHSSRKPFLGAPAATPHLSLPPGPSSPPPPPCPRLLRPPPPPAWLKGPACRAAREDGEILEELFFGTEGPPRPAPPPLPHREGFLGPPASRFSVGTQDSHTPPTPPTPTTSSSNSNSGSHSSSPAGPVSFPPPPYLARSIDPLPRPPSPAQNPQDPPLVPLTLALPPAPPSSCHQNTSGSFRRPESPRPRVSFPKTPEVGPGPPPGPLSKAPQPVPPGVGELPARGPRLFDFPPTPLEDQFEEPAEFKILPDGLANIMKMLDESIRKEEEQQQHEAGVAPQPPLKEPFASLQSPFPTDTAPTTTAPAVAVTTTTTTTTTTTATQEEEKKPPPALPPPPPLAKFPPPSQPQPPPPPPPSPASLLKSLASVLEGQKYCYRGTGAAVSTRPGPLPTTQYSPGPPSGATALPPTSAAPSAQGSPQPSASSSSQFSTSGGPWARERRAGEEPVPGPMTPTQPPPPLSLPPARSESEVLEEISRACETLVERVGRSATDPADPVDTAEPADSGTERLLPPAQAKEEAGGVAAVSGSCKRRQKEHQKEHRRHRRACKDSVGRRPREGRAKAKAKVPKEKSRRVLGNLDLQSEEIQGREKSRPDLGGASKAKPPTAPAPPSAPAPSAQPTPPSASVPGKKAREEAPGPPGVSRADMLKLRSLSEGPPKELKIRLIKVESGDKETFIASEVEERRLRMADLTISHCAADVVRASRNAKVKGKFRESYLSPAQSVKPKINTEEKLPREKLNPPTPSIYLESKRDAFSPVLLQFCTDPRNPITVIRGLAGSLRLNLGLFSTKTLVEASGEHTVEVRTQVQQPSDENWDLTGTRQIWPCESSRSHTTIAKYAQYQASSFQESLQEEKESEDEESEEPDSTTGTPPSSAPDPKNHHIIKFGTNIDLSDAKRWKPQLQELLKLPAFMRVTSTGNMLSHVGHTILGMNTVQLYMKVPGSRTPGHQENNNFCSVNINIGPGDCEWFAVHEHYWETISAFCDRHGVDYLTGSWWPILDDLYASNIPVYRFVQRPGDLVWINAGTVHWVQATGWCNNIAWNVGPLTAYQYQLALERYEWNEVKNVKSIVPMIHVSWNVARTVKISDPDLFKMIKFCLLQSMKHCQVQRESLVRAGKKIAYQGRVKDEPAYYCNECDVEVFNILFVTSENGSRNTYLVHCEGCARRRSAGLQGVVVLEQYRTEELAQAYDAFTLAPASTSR
UniProt Q9NR30: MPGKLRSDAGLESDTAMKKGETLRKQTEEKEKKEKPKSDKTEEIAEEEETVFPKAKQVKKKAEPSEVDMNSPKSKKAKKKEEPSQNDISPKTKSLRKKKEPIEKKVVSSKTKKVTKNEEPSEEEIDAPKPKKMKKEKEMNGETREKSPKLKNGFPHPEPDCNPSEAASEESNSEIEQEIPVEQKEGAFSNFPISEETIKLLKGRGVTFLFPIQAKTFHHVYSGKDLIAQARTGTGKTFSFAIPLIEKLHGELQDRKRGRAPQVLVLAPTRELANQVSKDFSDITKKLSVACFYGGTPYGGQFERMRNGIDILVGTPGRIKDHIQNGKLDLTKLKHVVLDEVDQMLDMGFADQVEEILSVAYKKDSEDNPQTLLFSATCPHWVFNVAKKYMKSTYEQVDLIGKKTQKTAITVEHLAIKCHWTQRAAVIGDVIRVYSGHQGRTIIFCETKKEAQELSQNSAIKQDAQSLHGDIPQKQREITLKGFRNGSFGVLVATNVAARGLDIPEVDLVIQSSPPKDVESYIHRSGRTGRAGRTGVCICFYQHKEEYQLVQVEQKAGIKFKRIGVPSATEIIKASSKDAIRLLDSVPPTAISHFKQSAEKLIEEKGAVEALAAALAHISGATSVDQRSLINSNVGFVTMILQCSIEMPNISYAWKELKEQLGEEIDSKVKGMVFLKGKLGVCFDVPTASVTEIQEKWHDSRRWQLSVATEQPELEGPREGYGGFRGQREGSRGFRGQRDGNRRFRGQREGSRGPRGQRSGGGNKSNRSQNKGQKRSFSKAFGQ

Molecular target: HA-epitope tagged JMJD3 (UniProt O15054)
Assay: affinity purification with mass spectrometry; anti-HA antibody on magnetic beads, from 50 million HEK 293T cells transfected with HA-JMJD3 for 24 h, basal or LPS 100 ng/ml for 6 h; TNGT buffer (150 mM NaCl, 50 mM Tris-HCl pH 7.4, 1% glycerol, 0.1% Triton X100), overnight at 4°C; LC-MS/MS

binding: binds
Substance: DDX21 (from UniProt Q9NR30 1-783) (enzyme)
